Assay [1] has as its target T1, PC-FLAG (mouse podocalyxin from the PC-Myc-DDK plasmid) (mouse) (UniProt Q9R0M4).
T1 sequence: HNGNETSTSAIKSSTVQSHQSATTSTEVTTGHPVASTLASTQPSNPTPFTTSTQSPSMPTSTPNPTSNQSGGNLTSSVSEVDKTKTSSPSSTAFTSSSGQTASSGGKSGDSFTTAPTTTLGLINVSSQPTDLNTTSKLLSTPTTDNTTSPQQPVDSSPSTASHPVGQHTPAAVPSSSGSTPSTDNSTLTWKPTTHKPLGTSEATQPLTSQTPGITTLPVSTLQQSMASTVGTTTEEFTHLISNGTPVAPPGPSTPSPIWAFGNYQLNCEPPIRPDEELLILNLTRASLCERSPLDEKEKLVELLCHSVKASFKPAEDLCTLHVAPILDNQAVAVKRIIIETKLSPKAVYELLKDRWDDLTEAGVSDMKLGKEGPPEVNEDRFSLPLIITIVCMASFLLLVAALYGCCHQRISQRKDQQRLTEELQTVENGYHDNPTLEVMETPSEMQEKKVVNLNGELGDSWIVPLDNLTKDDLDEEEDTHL
The experiment in a line: co-IP; whole-cell lysates of PC-FLAG-transfected HEK293T cells (with or without SGK3-K191M, SGK3-S486D, WT Nedd4-2; 24 h) precipitated with anti-FLAG antibody, blotted with anti-FLAG and anti-ezrin.

By UniProt entry, the sequences of proteins in these tests, tags left out.
UniProt P15311: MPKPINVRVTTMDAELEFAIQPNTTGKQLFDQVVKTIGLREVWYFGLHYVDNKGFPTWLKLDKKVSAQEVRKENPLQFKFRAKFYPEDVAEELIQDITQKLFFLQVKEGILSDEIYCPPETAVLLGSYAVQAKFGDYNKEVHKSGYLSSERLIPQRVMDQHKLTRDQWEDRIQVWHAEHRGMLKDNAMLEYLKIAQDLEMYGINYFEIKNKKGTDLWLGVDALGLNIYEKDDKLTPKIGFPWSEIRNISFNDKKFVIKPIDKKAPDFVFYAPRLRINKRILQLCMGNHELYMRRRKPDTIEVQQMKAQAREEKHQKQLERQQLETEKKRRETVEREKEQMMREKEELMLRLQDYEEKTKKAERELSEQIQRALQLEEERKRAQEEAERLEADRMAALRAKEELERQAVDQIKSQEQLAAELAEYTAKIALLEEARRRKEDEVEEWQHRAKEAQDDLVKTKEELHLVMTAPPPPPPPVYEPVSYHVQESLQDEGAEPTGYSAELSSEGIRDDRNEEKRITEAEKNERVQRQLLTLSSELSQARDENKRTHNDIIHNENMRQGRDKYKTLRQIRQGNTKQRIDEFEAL
UniProt Q8CFI0: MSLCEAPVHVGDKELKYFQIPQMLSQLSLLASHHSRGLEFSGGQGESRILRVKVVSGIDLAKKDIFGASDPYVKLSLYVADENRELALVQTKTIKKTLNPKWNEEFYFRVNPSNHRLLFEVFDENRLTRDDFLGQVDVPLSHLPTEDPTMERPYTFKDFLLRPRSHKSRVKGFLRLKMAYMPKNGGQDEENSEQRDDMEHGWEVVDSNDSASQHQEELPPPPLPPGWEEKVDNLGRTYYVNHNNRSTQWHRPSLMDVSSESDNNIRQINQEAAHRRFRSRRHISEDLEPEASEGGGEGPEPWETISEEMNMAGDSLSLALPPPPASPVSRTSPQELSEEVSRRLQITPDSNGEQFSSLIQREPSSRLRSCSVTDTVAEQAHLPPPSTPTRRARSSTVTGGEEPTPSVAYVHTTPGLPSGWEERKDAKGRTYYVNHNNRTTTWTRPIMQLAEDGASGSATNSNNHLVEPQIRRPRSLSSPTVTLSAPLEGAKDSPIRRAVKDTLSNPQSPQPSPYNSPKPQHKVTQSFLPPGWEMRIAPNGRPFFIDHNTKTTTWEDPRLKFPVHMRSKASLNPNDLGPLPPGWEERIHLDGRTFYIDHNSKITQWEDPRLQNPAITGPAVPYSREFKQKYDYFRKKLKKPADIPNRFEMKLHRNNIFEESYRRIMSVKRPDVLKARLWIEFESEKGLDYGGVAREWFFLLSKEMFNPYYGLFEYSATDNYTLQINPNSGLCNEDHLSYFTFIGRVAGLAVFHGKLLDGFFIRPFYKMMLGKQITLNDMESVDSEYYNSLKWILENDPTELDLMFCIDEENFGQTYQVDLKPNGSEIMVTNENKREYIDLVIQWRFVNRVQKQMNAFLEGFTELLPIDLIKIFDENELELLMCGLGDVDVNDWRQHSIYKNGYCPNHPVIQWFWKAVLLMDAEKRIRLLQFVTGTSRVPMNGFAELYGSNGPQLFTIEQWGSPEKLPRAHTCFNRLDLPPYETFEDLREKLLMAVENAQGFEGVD

The target of assay [2] is ezrin (endogenous in HEK293T cells) (human (endogenous in HEK293T)) (UniProt P15311). The experiment in a line: co-IP; whole-cell lysates of HEK293T cells transfected with WT Nedd4-2, with or without SGK3-K191M or SGK3-S486D, precipitated with anti-ezrin antibody, blotted with anti-ezrin and anti-Nedd4-2.

Results are given in words; binding and its absence hold for the method and conditions named. In cells and extracts the contact can be indirect. Some entries that bind do so weakly or less than the wild type. For some assays here: Sequences can lack the tags named with a protein.

As to “ezrin (endogenous in HEK293T cells) (from UniProt P15311 1-586)”, the binding result in assay [1] is “binds”.
For “neural precursor cell expressed developmentally downregulated protein 4 subtype 2 (Nedd4-2), wild type (from UniProt Q8CFI0 1-1004) (enzyme)”, in assay [2], the binding entry was “binds”.
